Paper PMC4958305

By UniProt entry, the sequences of proteins in these tests, tags left out.
UniProt O14356: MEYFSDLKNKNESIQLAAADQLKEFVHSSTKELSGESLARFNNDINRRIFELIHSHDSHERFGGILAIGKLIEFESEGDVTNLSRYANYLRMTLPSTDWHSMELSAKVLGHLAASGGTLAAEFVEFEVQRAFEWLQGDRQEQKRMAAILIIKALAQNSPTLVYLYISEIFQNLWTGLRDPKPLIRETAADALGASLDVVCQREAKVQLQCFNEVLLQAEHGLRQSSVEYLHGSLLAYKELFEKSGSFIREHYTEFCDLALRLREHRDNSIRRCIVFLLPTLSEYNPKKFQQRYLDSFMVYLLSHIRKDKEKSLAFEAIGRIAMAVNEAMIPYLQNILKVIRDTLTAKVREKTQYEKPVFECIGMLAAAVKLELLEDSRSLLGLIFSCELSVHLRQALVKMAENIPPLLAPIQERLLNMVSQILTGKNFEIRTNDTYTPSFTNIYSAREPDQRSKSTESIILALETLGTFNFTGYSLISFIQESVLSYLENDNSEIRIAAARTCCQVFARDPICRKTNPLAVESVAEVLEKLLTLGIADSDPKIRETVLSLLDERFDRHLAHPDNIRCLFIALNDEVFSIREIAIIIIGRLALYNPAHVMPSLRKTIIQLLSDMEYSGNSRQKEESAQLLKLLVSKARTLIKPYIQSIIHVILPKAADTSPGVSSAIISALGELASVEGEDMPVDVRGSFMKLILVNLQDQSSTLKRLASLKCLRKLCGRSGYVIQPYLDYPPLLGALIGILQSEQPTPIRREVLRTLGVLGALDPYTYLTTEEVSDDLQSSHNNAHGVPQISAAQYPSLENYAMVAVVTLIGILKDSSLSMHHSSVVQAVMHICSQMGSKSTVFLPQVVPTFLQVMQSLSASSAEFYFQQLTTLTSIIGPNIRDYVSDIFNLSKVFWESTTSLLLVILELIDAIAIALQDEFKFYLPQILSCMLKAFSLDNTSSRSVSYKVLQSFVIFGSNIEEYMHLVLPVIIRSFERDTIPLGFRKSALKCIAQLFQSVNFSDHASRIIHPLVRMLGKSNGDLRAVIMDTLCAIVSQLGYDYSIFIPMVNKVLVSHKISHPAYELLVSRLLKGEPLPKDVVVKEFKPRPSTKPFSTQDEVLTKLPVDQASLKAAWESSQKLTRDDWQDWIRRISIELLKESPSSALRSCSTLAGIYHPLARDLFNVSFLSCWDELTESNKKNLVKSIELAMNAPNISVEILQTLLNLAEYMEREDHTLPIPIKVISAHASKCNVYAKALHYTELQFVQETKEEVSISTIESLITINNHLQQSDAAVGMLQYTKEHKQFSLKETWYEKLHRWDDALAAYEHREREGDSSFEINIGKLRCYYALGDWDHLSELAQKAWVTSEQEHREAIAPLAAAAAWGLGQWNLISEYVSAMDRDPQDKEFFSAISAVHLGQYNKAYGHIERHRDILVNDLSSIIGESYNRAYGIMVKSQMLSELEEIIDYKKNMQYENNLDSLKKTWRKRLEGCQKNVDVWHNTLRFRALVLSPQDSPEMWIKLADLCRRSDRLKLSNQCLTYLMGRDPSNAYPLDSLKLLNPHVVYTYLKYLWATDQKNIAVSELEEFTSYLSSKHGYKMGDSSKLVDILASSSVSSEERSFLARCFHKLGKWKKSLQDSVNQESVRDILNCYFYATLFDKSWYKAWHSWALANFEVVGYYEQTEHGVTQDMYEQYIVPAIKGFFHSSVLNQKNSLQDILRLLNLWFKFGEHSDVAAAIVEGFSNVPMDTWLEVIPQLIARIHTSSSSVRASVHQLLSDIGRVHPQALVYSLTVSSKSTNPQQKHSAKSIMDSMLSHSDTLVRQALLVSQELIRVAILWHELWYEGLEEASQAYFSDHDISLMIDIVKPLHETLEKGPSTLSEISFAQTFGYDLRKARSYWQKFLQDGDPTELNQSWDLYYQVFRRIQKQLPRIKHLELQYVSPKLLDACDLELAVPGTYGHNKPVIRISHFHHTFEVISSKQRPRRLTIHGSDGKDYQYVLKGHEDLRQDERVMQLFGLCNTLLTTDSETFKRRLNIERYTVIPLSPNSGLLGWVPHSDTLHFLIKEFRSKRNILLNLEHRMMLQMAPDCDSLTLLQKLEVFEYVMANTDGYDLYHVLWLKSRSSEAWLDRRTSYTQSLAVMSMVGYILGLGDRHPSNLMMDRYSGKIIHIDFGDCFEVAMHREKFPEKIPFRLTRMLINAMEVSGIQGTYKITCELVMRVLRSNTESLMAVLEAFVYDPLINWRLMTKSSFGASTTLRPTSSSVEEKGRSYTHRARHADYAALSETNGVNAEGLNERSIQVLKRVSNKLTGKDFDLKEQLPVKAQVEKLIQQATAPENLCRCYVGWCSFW
UniProt Q9P7J8: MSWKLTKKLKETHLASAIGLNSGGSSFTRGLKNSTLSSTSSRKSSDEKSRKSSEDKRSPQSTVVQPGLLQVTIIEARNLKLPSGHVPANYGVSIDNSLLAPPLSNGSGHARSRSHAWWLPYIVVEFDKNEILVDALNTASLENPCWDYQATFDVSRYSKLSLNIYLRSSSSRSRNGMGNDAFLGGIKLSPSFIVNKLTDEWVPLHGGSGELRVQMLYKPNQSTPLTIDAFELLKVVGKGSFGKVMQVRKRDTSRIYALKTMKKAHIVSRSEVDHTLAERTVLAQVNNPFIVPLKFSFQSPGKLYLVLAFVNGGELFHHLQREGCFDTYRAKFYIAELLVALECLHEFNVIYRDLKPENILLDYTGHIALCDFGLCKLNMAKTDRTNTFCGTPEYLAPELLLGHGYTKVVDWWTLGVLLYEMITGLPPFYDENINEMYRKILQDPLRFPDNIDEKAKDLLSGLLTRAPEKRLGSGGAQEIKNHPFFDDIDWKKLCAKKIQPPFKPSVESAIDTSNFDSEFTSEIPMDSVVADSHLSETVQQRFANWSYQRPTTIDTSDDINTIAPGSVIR
UniProt O14157: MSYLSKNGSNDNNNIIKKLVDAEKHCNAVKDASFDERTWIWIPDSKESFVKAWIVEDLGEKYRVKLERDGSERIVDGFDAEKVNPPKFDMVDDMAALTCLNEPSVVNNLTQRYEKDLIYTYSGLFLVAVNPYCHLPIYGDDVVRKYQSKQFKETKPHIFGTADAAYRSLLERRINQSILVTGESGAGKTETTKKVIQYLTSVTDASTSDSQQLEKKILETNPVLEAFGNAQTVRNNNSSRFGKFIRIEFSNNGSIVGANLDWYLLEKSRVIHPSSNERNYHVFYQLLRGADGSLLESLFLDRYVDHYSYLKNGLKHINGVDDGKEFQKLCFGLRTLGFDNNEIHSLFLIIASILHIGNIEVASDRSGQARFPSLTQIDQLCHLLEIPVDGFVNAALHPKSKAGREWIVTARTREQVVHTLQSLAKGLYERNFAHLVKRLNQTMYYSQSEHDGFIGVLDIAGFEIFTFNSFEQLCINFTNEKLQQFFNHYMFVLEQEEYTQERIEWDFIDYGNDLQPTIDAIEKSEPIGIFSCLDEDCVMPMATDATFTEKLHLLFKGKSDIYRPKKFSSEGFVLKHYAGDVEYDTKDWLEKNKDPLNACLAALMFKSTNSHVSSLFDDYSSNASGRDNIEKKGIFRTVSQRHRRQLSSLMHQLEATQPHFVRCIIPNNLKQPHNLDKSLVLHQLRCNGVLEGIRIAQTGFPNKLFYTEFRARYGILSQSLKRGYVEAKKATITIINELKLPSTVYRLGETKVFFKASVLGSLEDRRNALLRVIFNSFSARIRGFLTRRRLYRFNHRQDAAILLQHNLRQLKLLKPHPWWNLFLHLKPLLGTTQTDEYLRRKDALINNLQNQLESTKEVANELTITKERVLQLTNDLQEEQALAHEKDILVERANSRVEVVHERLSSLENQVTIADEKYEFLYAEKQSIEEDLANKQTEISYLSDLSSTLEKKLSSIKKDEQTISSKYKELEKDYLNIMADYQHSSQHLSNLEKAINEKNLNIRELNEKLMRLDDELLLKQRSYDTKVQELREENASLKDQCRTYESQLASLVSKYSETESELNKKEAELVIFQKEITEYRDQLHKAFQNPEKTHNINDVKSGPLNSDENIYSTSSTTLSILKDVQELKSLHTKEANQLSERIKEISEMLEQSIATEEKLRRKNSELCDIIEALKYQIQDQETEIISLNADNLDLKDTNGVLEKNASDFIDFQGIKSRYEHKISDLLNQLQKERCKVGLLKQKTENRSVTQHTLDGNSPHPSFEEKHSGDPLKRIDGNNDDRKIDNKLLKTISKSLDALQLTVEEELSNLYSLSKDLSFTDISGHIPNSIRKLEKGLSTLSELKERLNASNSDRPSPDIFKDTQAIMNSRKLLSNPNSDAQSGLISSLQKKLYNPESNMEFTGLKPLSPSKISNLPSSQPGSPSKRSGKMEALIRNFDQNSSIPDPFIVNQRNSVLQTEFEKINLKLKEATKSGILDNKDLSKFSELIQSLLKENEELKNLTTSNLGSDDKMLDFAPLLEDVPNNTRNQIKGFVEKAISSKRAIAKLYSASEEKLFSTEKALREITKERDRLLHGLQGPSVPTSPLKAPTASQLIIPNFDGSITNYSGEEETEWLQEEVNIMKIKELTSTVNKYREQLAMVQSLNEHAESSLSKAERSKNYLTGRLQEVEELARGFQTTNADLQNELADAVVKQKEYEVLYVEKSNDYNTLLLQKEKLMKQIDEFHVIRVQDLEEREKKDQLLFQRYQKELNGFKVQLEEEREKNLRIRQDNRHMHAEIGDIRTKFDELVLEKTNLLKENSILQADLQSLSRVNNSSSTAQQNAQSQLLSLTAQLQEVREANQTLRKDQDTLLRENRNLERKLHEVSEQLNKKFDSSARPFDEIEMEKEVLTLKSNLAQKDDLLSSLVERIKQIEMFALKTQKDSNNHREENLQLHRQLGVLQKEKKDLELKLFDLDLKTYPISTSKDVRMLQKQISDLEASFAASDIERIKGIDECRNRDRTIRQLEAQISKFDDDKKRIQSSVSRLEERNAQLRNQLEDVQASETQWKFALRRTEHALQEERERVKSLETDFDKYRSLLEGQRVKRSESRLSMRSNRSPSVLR
UniProt O74184: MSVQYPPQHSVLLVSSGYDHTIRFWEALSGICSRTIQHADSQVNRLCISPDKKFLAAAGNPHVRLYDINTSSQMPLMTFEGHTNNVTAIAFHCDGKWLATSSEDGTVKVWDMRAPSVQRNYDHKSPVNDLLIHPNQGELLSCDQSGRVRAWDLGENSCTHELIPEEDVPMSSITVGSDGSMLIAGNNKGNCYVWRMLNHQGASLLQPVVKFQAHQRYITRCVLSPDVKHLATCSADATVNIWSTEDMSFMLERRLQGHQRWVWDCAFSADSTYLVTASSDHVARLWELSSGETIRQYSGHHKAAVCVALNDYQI

B1: RICTOR^Ste20 (protein, UniProt Q09743 1-1309)
chain: MKPVRRGQTDTALDISSHAKTNGDFIKKMNTTDSKRLKLLEDLKGKLEVECKIRDGAETLLQVFDTNFKKETKERKEMLKKKCTDELESSKKKIEELVSSIESFQGENGEAKTGSTSLTRSASATVSRKSSLQEKYSTRFSYKAGCSDSCSVTVSGTGELIGPTRNAHSNLTPTVIQRIDFENVNEKNNSSSEDTQPNGKRPSSLQSNFSQFPLNPWLDNIYKACLEGSMKDVIDSSNNLCEYLHEHSDPAYAKNFSLITPTILSMLELNVSEVTASVYRLLRHLFLDATAFSCCQMLNLPWILSKSLLSGTDAYQIEREQAFRLIRTLYFLSSTEGHEDYLSGITRTIISICEHVSDVSRGIAVETLIELMIIRPKILFKANGLRVLMISLIDGSISENLAASAALALVYLLDDPESACYVNLPYDIGILLSPFTSSSSRDTFNSSEEQSEQAAKAMKSSAKVASVLLNSWSGLLALSTNDFQALRSIVDTLRVPSFAPRSDVIDLFFLIFQVEYSSWSESFLAGKRLTVVKNQAVSNDDNINMVNIPDGSNKKYMSLRQHFTAVLLFIFLELGLVESIVCMIRASDDPSASRKATYLLGEVLRLSDELLPIHLGAKIQSLPSLFNMASQFTAEDRFVATSVLQSIESLNRVKFHSATQPFSQTTSLLFKEQKTDGSFRGQRQVEHVKLKMGMQIDDSHFRSMLAETNVLATKNYQKWRWDTLVQIMEGPLLSPKRIDETLRTTKFMRRLLAFYKPFSNRFSSIQNTKPNQKFIKVGCLVFRTLLANPEGVKYLSESKVIKQIAESLSQIDGYSEQVSEPIFSNSRLQKTLTHGYFPMLKVLSSQKEGHAIMERWRIFTTLYHLTELRNRDDLIIIFLTNLDYRLEGHTRIIFSKALNTGQQAVRLTATKHLAALINSESANDNLNHWAISLLIFQLYDPCLEVCKTAVKVLNEVCARNENLLAQVVQLQPSLAHLGEIGSPLLLRFLATTVGFHYLSEINFIEHELDNWYHHRNIDYVDLLEQNFFLSFVSNLKIIDKKNNEPDENILPLHFYGELVKSPQGCEVLESSGHFESFMGTLVEFYDKPLGNEAIRQLKSALWAIGNIGKTDQGITFLINHDTIPLIVKYAENSLIPTVRGTAYFVLGLISRTSKGVEILESLHWYSLMSLMGTSQGICIPRHAGQVLSTPRRNVEFVNERVPTPEFSSLLSSLTNSEREVIRLVSNLSNHVLTNESARQLTKIRSKNAKVFSSKRLVKACMTILGKFHYRVQIQQFVFELFPYSVLLSSSTSQDLNESPSRPNNLSISA
B2: Sin1 (protein, UniProt Q9P7Y9 1-665)
chain: MELTREKVLLLTFLRMQYSHILPDSIENRVISTEAPEWELDKSLQDLLIHDYDYSKTSFSSSPPIVANDTVSNVRKPSDTKQVNGAGGQVNHSRAEDSDYATSDLSESSDVGDDDNSCIFSFSKVPMQKDVASIKEEERLDPKISTLNNIDAIANLKLTNMVESSQAVNLTSSKQSSINQQSSVSTDYDDLRSISEESFHLSQGEIPLTFPMNSSLTDTEADAVVAVDALFPGKQRGTHNTVNKARSVSNAKAPTSALRALLEHKENSSQNGPLAENFATFSGHAESNALRLNIYFPSSESPSKPLFVELRKNVLVSEAIGYILLQYVNQQLVPPIEDEAQNPNYWNLRIVEDDGELDEDFPALDRVGPLSKFGFDAFALVKATPAQIKENQAAYPFKSKHPTSIPEANNKTHIRHTSSTSSQSQKQAQDVKDTLNTSHVVQVRLPPYGDNARFCNIEISKTTRLAMVLNQVCWMKQLERFKYTLRVAGSDTVLPLDKTFSSLDGNPTLELVKKKVRDKKGSTQQLPTSSPQNSVYGSIKKDAQSSTYNATDIMSSNTYQEFLVWKRQPVSFMGRHERLLAIDGEYVHIMPSESKNIFETPKTSSIHAGSIILCKQSKKSPCNFKMIVSKNRETKRYDFEVLSALEAAIIVSRIRALMNTVKKIN
B3: Ppk32 (protein, UniProt Q9P7X5 1-749)
chain: MLANALRLVSNSKKIKYDYDIQKENSVQVGPWTVYSASKKGTNEEVSVFTFDKKNLSTLLKRGSIDSNLKTNYVLELLRKDVSSLSRLRHPSLLQVVEPLEESKSSMSFVTRRIQSMLQDFIKSSNGGFSNYGSSANGKSSGNALEEVEIQKGLLQIIDGLVFLHGSAKVIHYNIRPSSVVVDAKGDWKLCGFSFSQSVESARYEFNDYDFGIPSSLQQSMDFLAPEYITHEIAGPESDVFSFGCLIYSIFNKNQSIINANNHLLSYEKEITSLNSPTFIESKNLPSENLKSLLKETLAVDPKQRASMFELERSPYFTGSAIAALRFLESFPEKLPSEKVSFMESLSKNLTTFPYRIQSQKILPTLLDHLNDQKLVPSLLPCIFEISKGLDSSIFSSKVFTAIFPIISAANSYPERVPLCIFQYMDCLKSKLPSGEFLSKIVPFIYGCFENSSLNVQTTSIQILGTLLDIIDVTTVKSSICPKLYHSFSVTNQLDVKVAILDTFNVFINQKFLDSFAIVDKLLPVLEKVKTREPTVVMGMVTVYISAGAIIPEETVHEQVIPRLWILSVSPSLSLEQYNKCMREIRSLSDAVQKSHAKKLQSKPSSVVPNRITTDPFSSQTKEATSKPSSISPNKATTNIFTSQASLSSQGVARETSSASSYRSYSQRASTPAVTAKSSFHYATPTSGLSNFNSVTPSSSASLYPPLIPSEARTPSVQPANRRVTTPVVNQNTVTSDSSNDLGGWKSLL

Molecular target: Tor1 (S. pombe (endogenous in S. pombe cells)) (UniProt O14356)
Assay: affinity purification with mass spectrometry; anti-Tor1 antibodies on protein G Dynabeads, cleared extract of wild-type S. pombe (JP350), 60 min at 4°C, washes with 200 mM NaCl; control without antibody; three independent experiments

Molecule | binding
Cdc12 (from UniProt Q10059 1-1841) | binds
Gad8 (from UniProt Q9P7J8 1-569) | binds
Myo51 (from UniProt O74805 1-1471) | binds
Myp2 (from UniProt O14157 1-2104) | binds
Pop3 (from UniProt O74184 1-314) | binds
B1 | binds
B2 | binds
B3 | binds

These are yes or no findings as the source states them, for the method shown. In cells and extracts the contact can be indirect. Here binding means that the protein was enriched with, or labelled near, the bait; the list need not be complete.
